In PMC11355779:
These are yes or no findings as the source states them, for the method shown. Binding seen in cells or lysates may run through a third protein. Some entries that bind do so weakly or less than the wild type. For some assays here: Where a sequence is shown, tags or fusion partners need not be part of it.

Chains of the proteins cited; added tags and fusions are not shown. Residues count along the entry.
UniProt P51793: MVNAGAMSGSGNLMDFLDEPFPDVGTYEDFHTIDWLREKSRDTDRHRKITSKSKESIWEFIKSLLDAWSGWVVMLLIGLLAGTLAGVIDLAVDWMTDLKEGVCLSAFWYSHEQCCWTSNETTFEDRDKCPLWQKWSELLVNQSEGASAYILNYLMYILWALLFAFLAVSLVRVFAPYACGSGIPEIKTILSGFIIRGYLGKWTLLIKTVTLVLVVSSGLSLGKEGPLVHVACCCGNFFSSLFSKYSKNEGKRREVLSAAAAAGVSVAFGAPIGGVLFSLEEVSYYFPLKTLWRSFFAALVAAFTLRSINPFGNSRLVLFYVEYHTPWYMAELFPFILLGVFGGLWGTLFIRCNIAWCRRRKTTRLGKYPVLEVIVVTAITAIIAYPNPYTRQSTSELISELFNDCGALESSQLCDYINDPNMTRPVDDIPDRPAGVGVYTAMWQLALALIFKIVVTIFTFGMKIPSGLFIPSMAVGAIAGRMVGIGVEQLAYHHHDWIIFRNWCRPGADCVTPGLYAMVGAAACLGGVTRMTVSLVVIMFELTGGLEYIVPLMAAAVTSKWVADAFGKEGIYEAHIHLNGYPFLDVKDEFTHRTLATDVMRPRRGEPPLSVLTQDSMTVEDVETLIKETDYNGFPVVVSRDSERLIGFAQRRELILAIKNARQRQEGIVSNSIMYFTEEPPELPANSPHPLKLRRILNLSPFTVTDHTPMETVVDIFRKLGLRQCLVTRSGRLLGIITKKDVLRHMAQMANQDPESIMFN
UniProt Q9JJR8, residues 35-199: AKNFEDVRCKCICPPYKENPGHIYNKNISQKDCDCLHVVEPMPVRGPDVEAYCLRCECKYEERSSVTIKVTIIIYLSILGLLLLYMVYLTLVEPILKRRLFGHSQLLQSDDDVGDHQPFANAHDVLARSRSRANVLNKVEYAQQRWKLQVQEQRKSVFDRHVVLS

How the values were obtained:
[1] = target: T1, ClC-7, C-terminally GFP-tagged (human) (UniProt P51798); assay: FRET or BRET; FLIM-FRET in co-transfected HEK293T cells 24 h after transfection; GFP donor (488 nm), mCherry acceptor; efficiency from the donor lifetime (phasor plot) against donor-only cells
T1 sequence: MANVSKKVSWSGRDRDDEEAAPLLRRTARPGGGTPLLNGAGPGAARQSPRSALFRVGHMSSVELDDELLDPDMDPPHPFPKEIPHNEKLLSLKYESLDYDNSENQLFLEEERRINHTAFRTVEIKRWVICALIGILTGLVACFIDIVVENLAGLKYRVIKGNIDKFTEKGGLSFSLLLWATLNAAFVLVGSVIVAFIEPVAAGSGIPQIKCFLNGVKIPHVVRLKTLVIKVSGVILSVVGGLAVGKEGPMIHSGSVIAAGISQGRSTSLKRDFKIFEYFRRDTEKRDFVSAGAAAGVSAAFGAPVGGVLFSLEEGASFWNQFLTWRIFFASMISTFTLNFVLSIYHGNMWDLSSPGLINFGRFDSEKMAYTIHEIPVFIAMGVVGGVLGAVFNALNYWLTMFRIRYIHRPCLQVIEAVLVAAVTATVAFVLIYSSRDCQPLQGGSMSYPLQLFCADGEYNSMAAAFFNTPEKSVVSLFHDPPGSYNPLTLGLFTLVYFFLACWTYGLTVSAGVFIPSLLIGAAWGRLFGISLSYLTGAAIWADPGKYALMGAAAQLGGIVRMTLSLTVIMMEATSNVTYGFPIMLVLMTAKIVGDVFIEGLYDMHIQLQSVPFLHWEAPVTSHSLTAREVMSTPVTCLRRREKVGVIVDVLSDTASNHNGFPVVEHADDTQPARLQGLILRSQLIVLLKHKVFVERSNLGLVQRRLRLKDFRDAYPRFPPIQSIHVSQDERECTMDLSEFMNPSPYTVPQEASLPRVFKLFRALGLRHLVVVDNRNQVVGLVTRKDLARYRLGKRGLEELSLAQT

[2] = target: ClC-4, mCherry-tagged (human) (UniProt P51793); assay: as above

Row | Substance | binding [1] | binding [2]
1 | TMEM9 Domain Family Member B (TMEM9B), C-terminally mCherry-tagged (from UniProt Q9JJR8 35-199) | no binding | –
2 | TMEM9 Domain Family Member B (TMEM9B), C-terminally GFP-6xHis-tagged (from UniProt Q9JJR8 35-199) | – | binds
